From patent publication US20050003371A1, “Modified nucleotides and methods of labeling nucleic acids” (Stratagene, priority 2002, published 2005)

Tests used:
[1] = Characterization of functionalized nucleotides: DNA probe made therewith (Appendix 1)
[2] = system: human alpha 1-antitrypsin transcripts; assay: Northern blot, chemiluminescent detection with fluorescein-labeled riboprobes (Procedure 9); parameters: species or system mouse

Substance: Fluorescein-12-dUTP [reference compound]
- DNA probe made therewith? [1]: Yes

Substance: fluorescein-12-UTP
- amount of transgenic mouse messenger RNA in which transcripts were detected ([2]; messenger RNA): 2 µg
- amount of total mouse RNA in which transcripts were detected ([2]; total mouse RNA): 10 µg

Substance: maleimido-methylcyclohexane-dUTP [MCC-dUTP]
- DNA probe made therewith? [1]: Yes

Substance: pyridine dithiopropanoate-dUTP [PDP-dUTP]
- DNA probe made therewith? [1]: Yes
